Laboratory results taken from PubChem BioAssay AID192 (DTP/NCI, 2004).
The list is a part of this screen's results and no random one: it is rich in T/C values a quarter to a half above the control, in often repeated tests (any T/C) and in doses without a T/C. Further doses and runs are listed elsewhere. T/C: endpoint of the treated group in % of that of the vehicle group. Some doses have a count of surviving animals in place of a T/C: the source files T/C as zero there, which appears to mark a toxic dose or a test without result, not a measured value. Some doses without a T/C left all or most animals alive at the check, yet need not have been tolerated: survival well below the control is almost never listed, so the zero probably covers shortened survival too. Counts of survivors are from the toxicity check (mostly the fifth day) where no day follows; animals may have died later. Schedule codes are those of the source, taken here to give the interval after Q, in days (D) or hours (H), and the number of doses after X. Some entries were tested several times; their values stand side by side, smallest first. Counts like (3×) count equal records among those shown. For survival time, this PubChem deposit counts one and a half times the control or more as active, and values a quarter to a half above the control carry no call in these data; other NCI protocols may use other cut-offs. Some T/C values are followed by the survivors on the day toxicity was checked, most often the fifth; without a count, all were alive then.

Test system: BDF1 mice, B16 melanoma ip, median survival T/C
Experiment: NCI In Vivo Anticancer Drug Screen. Data for tumor model B16 Melanoma (intraperitoneal) in B6D2F1 (BDF1) mice
Settings: T/C endpoint: median survival time, higher T/C = longer survival
Outline: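 Antitumor activity is assessed in mice bearing a transplanted tumor, with survival or tumor size compared against vehicle-dosed controls and expressed as T/C.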

[1] = dose: 50.0 mg/kg/injection, schedule: Q01DX009 (ip), vehicle: saline with Tween-80
[2] = dose: 100.0 mg/kg/injection, schedule: Q01DX009 (ip), vehicle: saline with Tween-80
[3] = dose: 200.0 mg/kg/injection, schedule: Q01DX009 (ip), vehicle: saline with Tween-80
[4] = dose: 100.0 mg/kg/injection, schedule: Q01DX009 (ip), vehicle: Klucel (hydroxypropylcellulose) (HPC)
[5] = dose: 200.0 mg/kg/injection, schedule: Q01DX009 (ip), vehicle: Klucel (hydroxypropylcellulose) (HPC)
[6] = dose: 400.0 mg/kg/injection, schedule: Q01DX009 (ip), vehicle: Klucel (hydroxypropylcellulose) (HPC)
[7] = dose: 100.0 mg/kg/injection, schedule: Q01DX009 (ip), vehicle: saline
[8] = dose: 200.0 mg/kg/injection, schedule: Q01DX009 (ip), vehicle: saline
[9] = dose: 400.0 mg/kg/injection, schedule: Q01DX009 (ip), vehicle: saline
[10] = dose: 10.0 mg/kg/injection, schedule: Q01DX009 (ip), vehicle: Klucel (hydroxypropylcellulose) (HPC)
[11] = dose: 12.5 mg/kg/injection, schedule: Q01DX009 (ip), vehicle: saline with Tween-80
[12] = dose: 25.0 mg/kg/injection, schedule: Q01DX009 (ip), vehicle: saline with Tween-80

SMILES: OCC1OC(n2cnc3cc(Cl)c(Cl)cc32)C(O)C1O (centres undefined)
- T/C (dose: 6.25 mg/kg/injection, schedule: Q01DX009 (ip), vehicle: saline with Tween-80): 127 % of control
- T/C [1]: 125 % of control
- T/C [2]: 125 % of control
- survivor count [3]: 3 of 10 (2×) and 8 of 10

SMILES: Cc1ccc(NC(=O)Nc2cccc3ccccc23)cc1Cl
- survivor count (dose: 50.0 mg/kg/injection, schedule: Q01DX009 (ip), vehicle: Klucel (hydroxypropylcellulose) (HPC)): 10 of 10
- survivor count [4]: 10 of 10
- survivor count [5]: 10 of 10
- survivor count [6]: 10 of 10

SMILES: CC(=O)Nc1ccc2c(c1)C[N+](C)(C1CCCCC1)CO2 (centres undefined)
- survivor count [1]: 10 of 10

SMILES: CC(CN(C)C)CN1c2ccccc2Sc2ccc(C(F)(F)F)cc21 (centres undefined)
- survivor count (dose: 25.0 mg/kg/injection, schedule: Q01DX009 (ip), vehicle: saline): 5 of 10
- survivor count (dose: 50.0 mg/kg/injection, schedule: Q01DX009 (ip), vehicle: saline): 0 of 10
- survivor count [7]: 0 of 10
- survivor count [8]: 0 of 10
- survivor count [9]: 0 of 10

SMILES: Cc1ccc(C2(O)CCN(CCCC(=O)c3ccc(F)cc3)CC2)cc1
- survivor count [4]: 4 of 10
- survivor count [5]: 0 of 10
- survivor count [6]: 0 of 10

SMILES: [O-]c1cc2c3c(c1)c1cc4c(cc1c[n+]3C=C2)OCO4
- survivor count (dose: 100.0 mg/kg/injection, schedule: Q01DX009 (ip), vehicle: water): 9 of 10

SMILES: COc1ccc2c(c1)N(CCCN(C)C)c1ccccc1S2
- survivor count (dose: 9.37 mg/kg/injection, schedule: Q01DX009 (ip), vehicle: saline): 10 of 10
- survivor count (dose: 75.0 mg/kg/injection, schedule: Q01DX009 (ip), vehicle: saline): 0 of 10
- survivor count (dose: 150.0 mg/kg/injection, schedule: Q01DX009 (ip), vehicle: saline): 0 of 10
- survivor count (dose: 300.0 mg/kg/injection, schedule: Q01DX009 (ip), vehicle: saline): 0 of 10

SMILES: CCN(CC)C(=O)c1ccc(C(Cl)(Cl)Cl)cc1
- survivor count [1]: 10 of 10
- survivor count [2]: 9 of 10
- survivor count [3]: 1 of 10

SMILES: Cc1cccc(NC(=O)CCl)c1
- survivor count (dose: 200.0 mg/kg/injection, schedule: Q01DX009 (ip), vehicle: carboxymethylcellulose (CMC)): 6 of 10

SMILES: N#CCCNC(Cc1ccc(O)cc1)C(=O)O (centres undefined)
- survivor count (dose: 12.5 mg/kg/injection, schedule: Q01DX009 (ip), vehicle: Klucel (hydroxypropylcellulose) (HPC)): 10 of 10
- survivor count (dose: 115.0 mg/kg/injection, schedule: Q01DX009 (ip), vehicle: Klucel (hydroxypropylcellulose) (HPC)): 10 of 10
- survivor count (dose: 170.0 mg/kg/injection, schedule: Q01DX009 (ip), vehicle: Klucel (hydroxypropylcellulose) (HPC)): 1 of 10
- survivor count (dose: 225.0 mg/kg/injection, schedule: Q04DX003 (ip), vehicle: Klucel (hydroxypropylcellulose) (HPC)): 4 of 10

SMILES: Cc1c(Cl)ccc2c(C(O)CBr)cc(-c3ccccc3)nc12 (centres undefined)
- survivor count (dose: 400.0 mg/kg/injection, schedule: Q01DX009 (ip), vehicle: saline with Tween-80): 10 of 10

SMILES: [Cl][Pt+2][Cl].[NH-]C1CCC1.[NH-]C1CCC1
- T/C (dose: 4.0 mg/kg/injection, schedule: Q01DX009 (ip), vehicle: saline with Tween-80): 128 % of control
- survivor count (dose: 5.0 mg/kg/injection, schedule: Q01DX009 (ip), vehicle: Klucel (hydroxypropylcellulose) (HPC)): 10 of 10
- T/C (dose: 8.0 mg/kg/injection, schedule: Q01DX009 (ip), vehicle: saline with Tween-80): 147 % of control
- T/C [10]: 130 % of control [9 of 10 alive]
- survivor count [10]: 10 of 10
- survivor count (dose: 16.0 mg/kg/injection, schedule: Q01DX009 (ip), vehicle: saline with Tween-80): 10 of 10 on day 6
- survivor count (dose: 20.0 mg/kg/injection, schedule: Q01DX009 (ip), vehicle: Klucel (hydroxypropylcellulose) (HPC)): 10 of 10
- survivor count (dose: 40.0 mg/kg/injection, schedule: Q01DX009 (ip), vehicle: Klucel (hydroxypropylcellulose) (HPC)): 10 of 10
- survivor count (dose: 80.0 mg/kg/injection, schedule: Q01DX009 (ip), vehicle: Klucel (hydroxypropylcellulose) (HPC)): 9 of 10

SMILES: CC(=O)OC/C=C(C)/C=C/C=C(C)/C=C/C1=C(C)CCCC1(C)C
- survivor count (dose: 400.0 mg/kg/injection, schedule: Q01DX005 (ip), vehicle: saline with Tween-80): 10 of 10
- survivor count (dose: 800.0 mg/kg/injection, schedule: Q01DX005 (ip), vehicle: saline with Tween-80): 10 of 10
- survivor count (dose: 1600.0 mg/kg/injection, schedule: Q01DX005 (ip), vehicle: saline with Tween-80): 9 of 10
- survivor count (dose: 2400.0 mg/kg/injection, schedule: Q01DX005 (ip), vehicle: saline with Tween-80): 1 of 10

SMILES: COc1cccc2c1C(=O)c1c(O)c3c(c(O)c1C2=O)C[C@@](O)(C(=O)CO)C[C@@H]3OC1CC(NC=O)C(O)C(C)O1 (some centres undefined)
- T/C (dose: 3.13 mg/kg/injection, schedule: Q01DX009 (ip), vehicle: other): 133 % of control
- T/C (dose: 6.25 mg/kg/injection, schedule: Q01DX009 (ip), vehicle: other): 142 % of control

SMILES: CCCCCCCCCCCCCC(=O)CCC
- survivor count [4]: 10 of 10
- survivor count (dose: 200.0 mg/kg/injection, schedule: Q01DX009 (ip), vehicle: other): 8 of 10
- survivor count (dose: 400.0 mg/kg/injection, schedule: Q01DX009 (ip), vehicle: other): 10 of 10

SMILES: CCCCC(CC)CCC(O)CCC(CC)CC (centres undefined)
- survivor count [5]: 10 of 10

SMILES: C/C=C(\Cl)C1=CC(=O)C23CC2C2(C)COC1(O)C3(O)O2 (centres undefined)
- survivor count (dose: 1.5 mg/kg/injection, schedule: Q01DX009 (ip), vehicle: saline with Tween-80): 10 of 10
- survivor count (dose: 3.0 mg/kg/injection, schedule: Q01DX009 (ip), vehicle: saline with Tween-80): 10 of 10
- survivor count (dose: 6.0 mg/kg/injection, schedule: Q01DX009 (ip), vehicle: saline with Tween-80): 10 of 10
- survivor count (dose: 12.0 mg/kg/injection, schedule: Q01DX009 (ip), vehicle: saline with Tween-80): 2 of 10
- survivor count (dose: 24.0 mg/kg/injection, schedule: Q01DX009 (ip), vehicle: saline with Tween-80): 0 of 10
- survivor count (dose: 48.0 mg/kg/injection, schedule: Q01DX009 (ip), vehicle: saline with Tween-80): 0 of 10

SMILES: C=CCNc1ccc(C)cc1
- survivor count [5]: 4 of 10

SMILES: C[CH2][Ge]1([CH2]C)[CH2]CC2(CCN(CCCN(C)C)C2)C[CH2]1
- survivor count (dose: 4.0 mg/kg/injection, schedule: Q02DX009 (ip), vehicle: saline): 6 of 6
- survivor count (dose: 64.0 mg/kg/injection, schedule: Q02DX009 (ip), vehicle: saline): 6 of 6

SMILES: CO[C@H]1C[C@@H]2CC[C@@H](C)[C@@](O)(O2)C(=O)C(=O)N2CCCC[C@H]2C(=O)O[C@H]([C@H](C)C[C@@H]2CC[C@@H](O)[C@H](OC)C2)CC(=O)[C@H](C)C=C(C)[C@@H](O)[C@@H](OC)C(=O)[C@H](C)C[C@H](C)/C=C/C=C/C=C1C
- T/C [11]: 144 % of control
- T/C [12]: 139 % of control
- T/C [1]: 125 % of control
- T/C [2]: 139 % of control

SMILES: Cc1nc2ccccc2nc1CI
- survivor count [11]: 5 of 6
- survivor count [12]: 5 of 6
- survivor count [1]: 0 of 6

SMILES: O=C(CNC(=O)Nc1ccc(C2=NCCN2)cc1)Nc1ccc(C2=NCCN2)cc1
- survivor count [7]: 0 of 6
- survivor count [8]: 0 of 6
- survivor count [9]: 0 of 6
